Results taken from the supplement of paper PMC4604168 (melanoma cell lines).
Some of the results follow. Many values rest on one well or one pass, so single values are uncertain.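 Imaging used 1,536-well plates; nuclei positive for cleaved PARP by antibody were divided by total DNA-stained nuclei to yield the apoptosis fraction. Doses for screening kept most cells viable, and cell lines differ markedly in resting and induced cleaved-PARP levels.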

Assays:
Test in all cases: cleaved PARP positive nuclei fraction relative to DMSO control; melanoma cells; higher = more apoptosis
Conditions in all cases: library dose: low library concentration; 72 h
CBRC034 = system: CBRC034 (line from a melanoma biopsy)
COLO792 = system: COLO792
COLO800 = system: COLO800
COLO829 = system: COLO829
G361 = system: G361
IPC-298 = system: IPC-298
IST-MEL1 = system: IST-MEL1
LB2518-MEL = system: LB2518-MEL
LOXIMVI = system: LOXIMVI

| Structure (SMILES) | cleaved PARP positive nuclei fraction (CBRC034) [%] | cleaved PARP positive nuclei fraction (COLO792) [%] | cleaved PARP positive nuclei fraction (COLO800) [%] | cleaved PARP positive nuclei fraction (COLO829) [%] | cleaved PARP positive nuclei fraction (G361) [%] | cleaved PARP positive nuclei fraction (IPC-298) [%] | cleaved PARP positive nuclei fraction (IST-MEL1) [%] | cleaved PARP positive nuclei fraction (LB2518-MEL) [%] | cleaved PARP positive nuclei fraction (LOXIMVI) [%] |
| --- | --- | --- | --- | --- | --- | --- | --- | --- | --- |
| C/C(O)=C(\C#N)C(=O)Nc1cc(Br)ccc1Br + CC(C)CCN1c2nc(Nc3cc(F)c(O)c(F)c3)ncc2N(C)C(=O)C1C [BID1870] (first compound 2 µM, partner dose 0.2 µM) | 78.7 | 108 | 85.7 | 91.1 | 152 | 18.7 | 129 | 421 | 39 |
| COC(=O)c1sccc1S(=O)(=O)Nc1ccc(Nc2ccccc2)cc1OC + C/C(O)=C(\C#N)C(=O)Nc1cc(Br)ccc1Br [LFM-A13] (first compound 1 µM, partner dose 2 µM) | 86.3 | 26.6 | 122 | 108 | 23.3 | 43.6 | 83 | 39.4 | 24.1 |
| O=C(O)c1ccc(-c2c[nH]c3ncc(-c4ccccc4)cc23)cc1C1CCCC1 + O=C(Oc1ccc([N+](=O)[O-])cc1)N1CCC(C(O)(c2ccc3c(c2)OCO3)c2ccc3c(c2)OCO3)CC1 [JZL184] (first compound 0.16 µM, partner dose 1 µM) | 102 | 48.1 | 27.8 | 101 | 38.9 | 81.2 | 55.8 | 137 | 43.2 |
| C[C@@H]1CCN(C(=O)CC#N)C[C@@H]1N(C)c1ncnc2[nH]ccc12 + C/C(O)=C(\C#N)C(=O)Nc1cc(Br)ccc1Br [LFM-A13] (first compound 1 µM, partner dose 2 µM) | 28.4 | 112 | 108 | 72 | 66.4 | 363 | 115 | 79.2 | 12 |
| Cc1ccc(NC(=O)c2cccc(N(C)C)c2)cc1NC(=O)c1ccc(O)cc1 + Cc1cc(SCc2sc(-c3ccc(C(F)(F)F)c(F)c3)nc2C)ccc1OCC(=O)O [GW0742] (first compound 2 µM, partner dose 2 µM) | 112 | 110 | 144 | 79 | 84.2 | 51.6 | 185 | 188 | 28.3 |
| Cc1cc(SCc2sc(-c3ccc(C(F)(F)F)c(F)c3)nc2C)ccc1OCC(=O)O + CCCCCCCCCCCC1=C(O)C(=O)C=C(O)C1=O [Embelin] (first compound 2 µM, partner dose 1.2 µM) | 62.6 | 82.9 | 86.1 | 132 | 91.3 | 84.7 | 133 | 319 | 63.5 |
| NC(=O)Nc1cc(-c2cccc(F)c2)sc1C(=O)N[C@H]1CCCNC1 + O=C(Oc1ccc([N+](=O)[O-])cc1)N1CCC(C(O)(c2ccc3c(c2)OCO3)c2ccc3c(c2)OCO3)CC1 [JZL184] (first compound 0.02 µM, partner dose 1 µM) | 79.1 | 40.2 | 57.8 | 109 | 151 | 101 | 41.3 | 93.2 | 35.1 |
| O=C(O)C(=O)Nc1sc2c(c1C(=O)O)CCNC2 + C/C(O)=C(\C#N)C(=O)Nc1cc(Br)ccc1Br [LFM-A13] (first compound 1.66667 µM, partner dose 2 µM) | 191 | 80.9 | 125 | 104 | 66.1 | 40.5 | 27.2 | 148 | 36.9 |
| C[C@@H]1CCN(C(=O)CC#N)C[C@@H]1N(C)c1ncnc2[nH]ccc12 + Cc1cc(SCc2sc(-c3ccc(C(F)(F)F)c(F)c3)nc2C)ccc1OCC(=O)O [GW0742] (first compound 1 µM, partner dose 2 µM) | 87 | 58.2 | 83.6 | 214 | 79.9 | 105 | 89.7 | 88.6 | 66.9 |
| COc1cc2c(Oc3ccc4[nH]c(C)cc4c3F)ncnc2cc1OCCCN1CCCC1 [cediranib] + Cc1cc(SCc2sc(-c3ccc(C(F)(F)F)c(F)c3)nc2C)ccc1OCC(=O)O [GW0742] (first compound 0.4 µM, partner dose 2 µM) | 36.5 | 134 | 97.1 | 32.8 | 22.1 | 78.9 | 69.3 | 332 | 66.4 |
| COCC[n+]1c2c(n(Cc3cnccn3)c1C)C(=O)c1ccccc1C2=O + Cc1cc(SCc2sc(-c3ccc(C(F)(F)F)c(F)c3)nc2C)ccc1OCC(=O)O [GW0742] (first compound 0.0004 µM, partner dose 2 µM) | 89.8 | 98.5 | 87.8 | 90.2 | 29.1 | 169 | 156 | 152 | 34.6 |
